Experimental data: PubChem BioAssay AID1159578 (Peter MacCallum Cancer Centre, 2015)
The whole screen tested about 18,000 reagents; below is a random part of them. About 1,030 of them (5.7%) count as active. 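Inactive calls also include pools with fewer than 3300 nuclei, whose migration was not assessed.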 Raw values vary from plate to plate and are shown uncorrected. A number with no mark means an inactive call. Not all columns of the deposit are shown. No sequences are given here.

Assay: 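Genome-wide hunt for genes controlling movement of lymphatic endothelial cells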 (primary screen)
Cell system: human lymphatic endothelial cells
Knock-down reagent: siRNA pool against human genes, 40 nM
Time to read-out: 48 h after transfection
Measurement: 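High-content imaging of dye-stained cells in a scratch assay measures filled wound area and nuclei per well; duplicate means given as ratio to mock and robust z-score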
Reading the numbers: migration robust z-score: higher = faster migration into the scratch; nuclei per well: higher = more cells in the well
Hit rule: 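Migration changed when robust z exceeds 2 or falls below -2 and mean nuclei number is at least 3300; otherwise not called changed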
Meaning of the calls: active = migration changed; inactive = no migration change, or too few cells

After knock-down of OR2T6, the screen gave migration robust z-score -1.05; nuclei per well, duplicate mean 6648.
GZMM showed migration robust z-score -3.07; nuclei per well, duplicate mean 1942.
Silencing of BTNL3 gave: migration robust z-score 0.31; nuclei per well, duplicate mean 5756.
PTTG2 showed migration robust z-score 0.84; nuclei per well, duplicate mean 6850.
For TSTD2, the values are migration robust z-score -0.55; nuclei per well, duplicate mean 5972.
Depletion of PPFIBP2 gave: migration robust z-score 0.18; nuclei per well, duplicate mean 5166.
DSTN scored migration robust z-score 1.6; nuclei per well, duplicate mean 6214.
DUOX1 scored migration robust z-score -0.68; nuclei per well, duplicate mean 3441.
After knock-down of H4C5 the results were migration robust z-score -0.18; nuclei per well, duplicate mean 5893.
Against PLA2G2A, the values are migration robust z-score 0.7; nuclei per well, duplicate mean 6004.
CIRBP-AS1 showed migration robust z-score -0.26; nuclei per well, duplicate mean 6150.
Against OTUB1 the deposit lists migration robust z-score -1.61; nuclei per well, duplicate mean 4740.
For KRTAP19-2 the deposit lists migration robust z-score -0.36; nuclei per well, duplicate mean 6957.
GNPTAB scored migration robust z-score -0.45; nuclei per well, duplicate mean 6106.
Depletion of PIP gave: migration robust z-score -0.05; nuclei per well, duplicate mean 5690.
After knock-down of P2RY6, the record shows migration robust z-score 0.36; nuclei per well, duplicate mean 6666.
Silencing of DEGS1 resulted in: migration robust z-score -0.44; nuclei per well, duplicate mean 5894.
With knock-down of LUC7L, the screen gave migration robust z-score -0.01; nuclei per well, duplicate mean 3932.
Against TBC1D10B the deposit lists migration robust z-score -0.3; nuclei per well, duplicate mean 5392.
PYDC1 gave migration robust z-score -1.3; nuclei per well, duplicate mean 3594.
For MCC, the entry reads migration robust z-score -2.26 (active); nuclei per well, duplicate mean 5010.

Quoted from above for reference:
OTUB1 — migration robust z-score = -1.61; nuclei per well, duplicate mean = 4740
KRTAP19-2 — migration robust z-score = -0.36; nuclei per well, duplicate mean = 6957
